Data taken from patent US20110166081A1 (UNIVERSITY OF IOWA RESEARCH FOUNDATION, published 2011).
No constants are given. Whether binding was seen depends on the method and setting. Some results given as binding are weak or reduced against the parent protein; the word gives no strength.

By UniProt entry, the sequences of proteins in these tests, tags left out. Where a name states a change or a piece, a line headed by the entry shows the natural chain unless it says otherwise.
UniProt P19137: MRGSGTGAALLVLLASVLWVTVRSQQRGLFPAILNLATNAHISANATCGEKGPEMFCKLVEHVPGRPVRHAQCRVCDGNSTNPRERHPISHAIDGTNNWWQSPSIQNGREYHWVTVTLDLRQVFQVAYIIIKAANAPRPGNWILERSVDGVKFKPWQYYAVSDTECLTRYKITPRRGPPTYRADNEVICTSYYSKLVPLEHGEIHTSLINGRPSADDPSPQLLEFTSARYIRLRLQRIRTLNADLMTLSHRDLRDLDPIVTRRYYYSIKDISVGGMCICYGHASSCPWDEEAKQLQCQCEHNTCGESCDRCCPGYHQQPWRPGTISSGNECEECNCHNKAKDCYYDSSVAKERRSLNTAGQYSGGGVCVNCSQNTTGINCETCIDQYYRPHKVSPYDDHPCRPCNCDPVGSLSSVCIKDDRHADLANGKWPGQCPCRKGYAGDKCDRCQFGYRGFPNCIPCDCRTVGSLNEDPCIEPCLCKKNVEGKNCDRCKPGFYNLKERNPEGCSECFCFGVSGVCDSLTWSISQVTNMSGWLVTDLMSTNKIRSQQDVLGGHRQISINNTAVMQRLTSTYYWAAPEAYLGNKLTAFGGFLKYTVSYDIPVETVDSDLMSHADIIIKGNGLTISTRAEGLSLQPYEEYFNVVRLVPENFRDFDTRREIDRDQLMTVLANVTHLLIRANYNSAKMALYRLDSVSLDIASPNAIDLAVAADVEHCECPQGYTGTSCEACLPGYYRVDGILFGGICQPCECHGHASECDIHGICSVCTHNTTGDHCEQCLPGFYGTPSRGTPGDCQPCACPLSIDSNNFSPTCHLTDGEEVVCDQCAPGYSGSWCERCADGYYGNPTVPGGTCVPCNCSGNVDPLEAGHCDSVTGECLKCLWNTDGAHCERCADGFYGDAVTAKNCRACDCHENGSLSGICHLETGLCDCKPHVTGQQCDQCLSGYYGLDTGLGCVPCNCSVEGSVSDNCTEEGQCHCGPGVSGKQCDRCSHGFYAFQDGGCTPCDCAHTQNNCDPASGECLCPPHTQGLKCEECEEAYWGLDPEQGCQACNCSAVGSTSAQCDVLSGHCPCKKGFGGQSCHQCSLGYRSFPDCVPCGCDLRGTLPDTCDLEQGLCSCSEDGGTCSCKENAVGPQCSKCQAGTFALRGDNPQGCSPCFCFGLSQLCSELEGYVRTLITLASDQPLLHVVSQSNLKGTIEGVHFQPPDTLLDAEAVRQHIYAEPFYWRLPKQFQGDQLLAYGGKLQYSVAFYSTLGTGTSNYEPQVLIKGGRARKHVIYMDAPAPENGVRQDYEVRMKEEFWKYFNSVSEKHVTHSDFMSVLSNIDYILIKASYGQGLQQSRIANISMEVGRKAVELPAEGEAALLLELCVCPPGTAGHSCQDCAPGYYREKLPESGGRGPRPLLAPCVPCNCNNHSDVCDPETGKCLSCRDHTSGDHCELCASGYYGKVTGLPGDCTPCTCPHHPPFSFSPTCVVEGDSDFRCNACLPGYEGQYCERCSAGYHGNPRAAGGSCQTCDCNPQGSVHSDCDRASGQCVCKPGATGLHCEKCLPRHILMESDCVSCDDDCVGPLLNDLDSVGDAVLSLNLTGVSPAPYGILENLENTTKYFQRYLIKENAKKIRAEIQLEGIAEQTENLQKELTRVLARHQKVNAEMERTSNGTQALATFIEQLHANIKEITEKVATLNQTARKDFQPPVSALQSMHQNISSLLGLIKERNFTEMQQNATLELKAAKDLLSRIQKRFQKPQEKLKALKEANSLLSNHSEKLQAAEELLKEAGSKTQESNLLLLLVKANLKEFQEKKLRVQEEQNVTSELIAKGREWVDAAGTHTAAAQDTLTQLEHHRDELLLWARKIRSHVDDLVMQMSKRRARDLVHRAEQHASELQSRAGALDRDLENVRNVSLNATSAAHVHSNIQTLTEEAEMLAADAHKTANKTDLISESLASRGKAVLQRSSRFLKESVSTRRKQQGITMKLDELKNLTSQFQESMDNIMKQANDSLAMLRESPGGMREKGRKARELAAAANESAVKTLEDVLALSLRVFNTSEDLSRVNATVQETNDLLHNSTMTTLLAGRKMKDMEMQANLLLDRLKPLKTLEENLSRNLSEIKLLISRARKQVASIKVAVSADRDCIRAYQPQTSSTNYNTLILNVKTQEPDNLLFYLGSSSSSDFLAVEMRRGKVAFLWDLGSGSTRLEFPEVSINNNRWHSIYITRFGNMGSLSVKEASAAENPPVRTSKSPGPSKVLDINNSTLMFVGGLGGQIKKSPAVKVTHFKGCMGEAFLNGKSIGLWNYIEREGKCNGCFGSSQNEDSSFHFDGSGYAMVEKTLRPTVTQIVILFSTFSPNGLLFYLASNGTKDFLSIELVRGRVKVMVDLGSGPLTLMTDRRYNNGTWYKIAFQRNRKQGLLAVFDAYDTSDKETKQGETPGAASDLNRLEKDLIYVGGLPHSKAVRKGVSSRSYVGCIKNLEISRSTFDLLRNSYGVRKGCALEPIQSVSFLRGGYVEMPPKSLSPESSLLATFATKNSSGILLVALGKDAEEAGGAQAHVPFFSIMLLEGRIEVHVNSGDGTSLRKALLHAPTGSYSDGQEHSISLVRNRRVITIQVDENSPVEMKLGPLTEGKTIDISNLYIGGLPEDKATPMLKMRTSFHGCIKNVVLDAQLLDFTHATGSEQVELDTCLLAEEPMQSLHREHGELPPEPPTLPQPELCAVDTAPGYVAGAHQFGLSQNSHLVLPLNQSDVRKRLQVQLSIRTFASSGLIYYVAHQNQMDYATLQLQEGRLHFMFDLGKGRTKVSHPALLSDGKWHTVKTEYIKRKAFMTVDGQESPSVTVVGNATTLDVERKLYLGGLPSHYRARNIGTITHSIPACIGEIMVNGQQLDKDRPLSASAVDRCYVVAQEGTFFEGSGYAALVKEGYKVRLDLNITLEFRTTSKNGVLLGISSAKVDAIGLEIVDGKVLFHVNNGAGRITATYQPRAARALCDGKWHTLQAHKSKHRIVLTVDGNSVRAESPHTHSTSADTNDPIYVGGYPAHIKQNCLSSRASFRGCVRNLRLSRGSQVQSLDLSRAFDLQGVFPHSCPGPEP
UniProt P02469: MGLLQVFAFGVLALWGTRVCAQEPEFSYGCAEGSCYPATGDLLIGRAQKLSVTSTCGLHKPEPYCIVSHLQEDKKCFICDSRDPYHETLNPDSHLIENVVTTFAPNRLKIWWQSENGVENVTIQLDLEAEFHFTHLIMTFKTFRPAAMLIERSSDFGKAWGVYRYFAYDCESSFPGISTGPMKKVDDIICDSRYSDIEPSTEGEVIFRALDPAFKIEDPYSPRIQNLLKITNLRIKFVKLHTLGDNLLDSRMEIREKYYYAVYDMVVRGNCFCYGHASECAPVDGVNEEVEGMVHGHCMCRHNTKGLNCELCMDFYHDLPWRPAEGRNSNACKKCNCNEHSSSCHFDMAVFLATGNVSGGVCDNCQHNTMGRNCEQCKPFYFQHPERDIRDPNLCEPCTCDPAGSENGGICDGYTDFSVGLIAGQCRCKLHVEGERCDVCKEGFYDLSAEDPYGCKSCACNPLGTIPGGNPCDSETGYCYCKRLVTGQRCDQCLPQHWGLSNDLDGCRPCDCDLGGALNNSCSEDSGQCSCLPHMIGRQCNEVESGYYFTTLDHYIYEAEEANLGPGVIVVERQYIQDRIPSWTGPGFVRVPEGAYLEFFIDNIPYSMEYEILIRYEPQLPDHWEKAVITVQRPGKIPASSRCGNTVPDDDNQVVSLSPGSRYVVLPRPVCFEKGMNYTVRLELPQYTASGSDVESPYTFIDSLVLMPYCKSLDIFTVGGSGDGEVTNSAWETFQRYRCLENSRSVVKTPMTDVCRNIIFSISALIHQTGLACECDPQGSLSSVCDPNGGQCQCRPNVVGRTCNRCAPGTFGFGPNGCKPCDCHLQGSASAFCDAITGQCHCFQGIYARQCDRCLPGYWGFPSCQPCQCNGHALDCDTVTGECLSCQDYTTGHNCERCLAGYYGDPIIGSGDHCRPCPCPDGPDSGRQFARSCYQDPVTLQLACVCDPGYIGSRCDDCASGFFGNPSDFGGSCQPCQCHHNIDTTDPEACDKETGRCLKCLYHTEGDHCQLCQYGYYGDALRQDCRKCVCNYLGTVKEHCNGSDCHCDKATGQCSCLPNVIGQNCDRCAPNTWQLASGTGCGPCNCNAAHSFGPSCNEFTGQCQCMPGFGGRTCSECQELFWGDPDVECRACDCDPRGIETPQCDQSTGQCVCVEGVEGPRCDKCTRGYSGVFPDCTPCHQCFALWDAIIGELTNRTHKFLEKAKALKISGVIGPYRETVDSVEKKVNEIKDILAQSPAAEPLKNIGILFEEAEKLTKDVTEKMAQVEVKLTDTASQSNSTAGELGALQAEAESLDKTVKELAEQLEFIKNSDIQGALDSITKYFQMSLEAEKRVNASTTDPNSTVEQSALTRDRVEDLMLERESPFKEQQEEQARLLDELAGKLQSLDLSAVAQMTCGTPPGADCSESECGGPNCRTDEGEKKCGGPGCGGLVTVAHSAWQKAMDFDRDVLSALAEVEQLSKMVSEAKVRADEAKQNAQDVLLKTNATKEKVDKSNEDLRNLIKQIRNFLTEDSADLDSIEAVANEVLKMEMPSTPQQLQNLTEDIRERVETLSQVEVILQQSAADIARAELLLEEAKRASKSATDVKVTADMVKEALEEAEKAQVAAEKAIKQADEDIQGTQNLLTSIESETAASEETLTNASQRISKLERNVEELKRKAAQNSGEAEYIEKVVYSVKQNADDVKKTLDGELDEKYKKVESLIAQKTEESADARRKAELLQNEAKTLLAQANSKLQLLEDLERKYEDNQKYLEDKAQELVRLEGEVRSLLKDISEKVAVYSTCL
UniProt P02468: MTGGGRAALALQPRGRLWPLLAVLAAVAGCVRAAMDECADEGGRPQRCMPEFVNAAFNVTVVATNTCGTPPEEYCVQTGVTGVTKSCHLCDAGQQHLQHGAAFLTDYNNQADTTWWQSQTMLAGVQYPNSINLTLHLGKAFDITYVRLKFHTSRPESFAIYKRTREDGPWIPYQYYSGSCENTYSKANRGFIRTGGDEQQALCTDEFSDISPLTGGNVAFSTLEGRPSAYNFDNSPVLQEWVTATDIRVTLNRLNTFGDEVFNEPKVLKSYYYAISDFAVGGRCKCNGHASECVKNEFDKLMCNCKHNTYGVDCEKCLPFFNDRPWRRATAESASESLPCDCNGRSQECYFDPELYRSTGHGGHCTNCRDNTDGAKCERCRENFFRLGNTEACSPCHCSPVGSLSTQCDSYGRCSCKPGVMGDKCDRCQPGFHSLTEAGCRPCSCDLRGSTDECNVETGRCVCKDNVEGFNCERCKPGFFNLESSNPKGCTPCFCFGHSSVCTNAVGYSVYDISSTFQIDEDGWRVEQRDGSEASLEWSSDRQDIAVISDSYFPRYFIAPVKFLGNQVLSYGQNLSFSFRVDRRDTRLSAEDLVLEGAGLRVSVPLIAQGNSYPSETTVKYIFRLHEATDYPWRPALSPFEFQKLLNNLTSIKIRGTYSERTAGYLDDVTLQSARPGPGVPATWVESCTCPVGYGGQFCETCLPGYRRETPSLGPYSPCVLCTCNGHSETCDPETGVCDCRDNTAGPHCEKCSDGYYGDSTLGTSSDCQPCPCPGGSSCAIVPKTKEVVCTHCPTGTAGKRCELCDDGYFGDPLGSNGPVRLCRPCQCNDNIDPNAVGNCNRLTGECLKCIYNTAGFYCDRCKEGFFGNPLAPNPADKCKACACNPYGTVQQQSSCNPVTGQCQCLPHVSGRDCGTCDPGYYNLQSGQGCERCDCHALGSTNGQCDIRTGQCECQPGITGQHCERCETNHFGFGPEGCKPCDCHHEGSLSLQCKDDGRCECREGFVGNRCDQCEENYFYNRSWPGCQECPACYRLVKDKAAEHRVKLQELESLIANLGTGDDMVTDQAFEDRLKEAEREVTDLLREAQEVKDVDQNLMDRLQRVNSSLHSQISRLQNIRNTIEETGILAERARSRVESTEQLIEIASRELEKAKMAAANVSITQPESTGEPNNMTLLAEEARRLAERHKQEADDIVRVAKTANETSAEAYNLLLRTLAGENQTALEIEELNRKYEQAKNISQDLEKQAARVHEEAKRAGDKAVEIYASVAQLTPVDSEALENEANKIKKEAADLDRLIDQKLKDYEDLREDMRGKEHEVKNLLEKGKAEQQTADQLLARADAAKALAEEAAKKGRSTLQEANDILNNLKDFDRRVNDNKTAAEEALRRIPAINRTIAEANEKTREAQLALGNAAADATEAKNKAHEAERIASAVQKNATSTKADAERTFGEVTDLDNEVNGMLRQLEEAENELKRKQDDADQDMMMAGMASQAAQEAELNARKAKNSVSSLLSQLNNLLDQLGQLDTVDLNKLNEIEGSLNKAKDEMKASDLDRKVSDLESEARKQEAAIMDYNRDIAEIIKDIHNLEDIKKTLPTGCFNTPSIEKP

Molecular target: mouse Engelbreth-Holm-Swarm (EHS) laminin (mouse) (UniProt P19137+P02469+P02468)
Assay: laminin overlay assay on PVDF membrane

B1: purified recombinant rabbit alpha-dystroglycan glycosylated by LARGE (from HEK293-aDG/L cells) (receptor, UniProt Q28685 30-653, looked up)
chain: HWPSEPSEAVRDWENQLEASMHSVLSDLHEALPTVVGIPDGTAVVGRSFRVTIPTDLIGSSGEVIKVSTAGKEVLPSWLHWDPQSHTLEGLPLDTDKGVHYISVSAAQLDANGSHIPQTSSVFSIEVYPEDHSEPQSVRAASPDLGEAAASACAAEEPVTVLTVILDADLTKMTPKQRIDLLHRMQSFSEVELHNMKLVPVVNNRLFDMSAFMAGPGNAKKVVENGALLSWKLGCSLNQNSVPDIRGVEAPAREGTMSAQLGYPVVGWHIANKKPPLPKRIRRQIHATPTPVTAIGPPTTAIQEPPSRIVPTPTSPAIAPPTETMAPPVRDPVPGKPTVTTRTRGAIIQTPTLGPIQPTRVSDAGTVVSGQIRATVTIPGYVEPTAVATPPTTTTKKPRVSTPKPATPSTDSSATTTRRPTKKPRTPRPVPRVTTKAPITRLETASPPTRIRTTTSGVPRGGEPNQRPELKNHIDRVDAWVGTYFEVKIPSDTFYDKEDTTTDKLKLTLKLREQQLVGEKSWVQFNSNSQLMYGLPDSSHVGKHEYFMHATDKGGLSAVDAFEIHVHKRPQGDKAPARFKAKFVGDPAPVVNDIHKKIALVKKLAFAFGDRNCSTVTLQNITRG
modifications: glycosylated by LARGE (co-expressed human LARGE); sites not given
  binding: binds
